Residue numbers refer to the chain shown, from its start. No constants are given. Whether binding was seen depends on the method and setting. A result given as binding can be weak or reduced; the word gives no strength.
What was measured:
[1] = biological target: T1, MglB^ΔCT (Myxococcus xanthus) (UniProt Q1DB03); assay: SAXS; SAXSpace line collimation, 20 °C; MglB 25, 15, 10 mg/ml; MglC 35, 15, 20 mg/ml; MglBC and MglB^ΔCTC complexes freshly eluted from SEC; both purified
T1 sequence: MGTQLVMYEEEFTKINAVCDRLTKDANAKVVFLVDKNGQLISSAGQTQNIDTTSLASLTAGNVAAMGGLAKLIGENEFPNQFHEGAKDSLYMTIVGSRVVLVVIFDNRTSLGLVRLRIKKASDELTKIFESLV

[2] = biological target: T2, MglB^E84A,R115A (Myxococcus xanthus) (UniProt Q1DB03); assay: SEC; analytical SEC, Superdex 200 Increase 10/300, 0.5 ml/min, A280; proteins alone or MglB:MglC mixed 1:1, 2:1 and 1:2; MglB mutants mixed with MglC 2:1; both purified
T2 sequence: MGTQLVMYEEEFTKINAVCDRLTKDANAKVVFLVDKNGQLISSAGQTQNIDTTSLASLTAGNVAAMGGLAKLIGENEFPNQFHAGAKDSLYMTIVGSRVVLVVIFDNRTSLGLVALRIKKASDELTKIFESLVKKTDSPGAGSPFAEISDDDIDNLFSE

[3] = biological target: T3, MglB^S54A,S57A (Myxococcus xanthus) (UniProt Q1DB03); assay: as above
T3 sequence: T2 sequence with S54A, S57A, A84E, A115R

[4] = biological target: T1, MglB^ΔCT (Myxococcus xanthus); assay: as above

Measured: binding

Mutual gliding motility protein C (MglC) (Myxococcus xanthus)
binds: [1] | [2] | [3] | [4]

— PMC7949163
